# Test results published in the supplement of paper PMC4604168 (melanoma cell lines).
# The other results are listed elsewhere or left out. Many values rest on one well or one pass, so single values are uncertain.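 Cells were imaged in 1,536-well plates, and nuclei stained with an antibody against cleaved PARP were counted against all DNA-stained nuclei to give the apoptosis fraction. Screening doses were chosen to leave most cells alive, and resting and induced cleaved-PARP levels differ strongly between cell lines.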
# Test system: A375
# Experiment: cleaved PARP positive nuclei fraction relative to DMSO control; melanoma cells; higher = more apoptosis
# Settings: library dose: low library concentration; 72 h
row,SMILES,cleaved PARP positive nuclei fraction [%]
1,"CC(C)C[C@H](NC(=O)[C@H](Cc1ccccc1)NC(=O)c1cnccn1)B(O)O [Bortezomib] + Cn1c(Nc2ccc(C(F)(F)F)cc2)nc2cc(Oc3ccnc(-c4ncc(C(F)(F)F)[nH]4)c3)ccc21 [CHIR265] (first compound 0.001 µM, partner dose 0.08 µM)",437
2,"Cn1c(=O)n(-c2ccc(C(C)(C)C#N)cc2)c2c3cc(-c4cnc5ccccc5c4)ccc3ncc21 + C[C@]1(c2nc3c(C(N)=O)cccc3[nH]2)CCCN1 [Veliparib] (first compound 0.004 µM, partner dose 1.4 µM)",332
3,"CS(=O)(=O)CCNCc1ccc(-c2ccc3ncnc(Nc4ccc(OCc5cccc(F)c5)c(Cl)c4)c3c2)o1 [lapatinib] + COCC[n+]1c2c(n(Cc3cnccn3)c1C)C(=O)c1ccccc1C2=O [YM155] (first compound 0.8 µM, partner dose 0.0004 µM)",429
4,"CCCS(=O)(=O)Nc1ccc(F)c(C(=O)c2c[nH]c3ncc(Cl)cc23)c1F + Nc1nc(F)nc2c1ncn2[C@@H]1O[C@H](CO)[C@@H](O)[C@@H]1O [fludarabine] (first compound 0.08 µM, partner dose 0.2 µM)",3600
5,"Cc1cc(Nc2cc(N3CCN(C)CC3)nc(/C=C/c3ccccc3)n2)n[nH]1 + CO[C@H]1C[C@@H]2CC[C@@H](C)[C@@](O)(O2)C(=O)C(=O)N2CCCC[C@H]2C(=O)O[C@H]([C@H](C)C[C@@H]2CC[C@@H](OCCO)[C@H](OC)C2)CC(=O)[C@H](C)/C=C(\C)[C@@H](O)[C@@H](OC)C(=O)[C@H](C)C[C@H](C)/C=C/C=C/C=C/1C [everolimus] (first compound 0.04 µM, partner dose 0.02 µM)",1040
6,"CCCS(=O)(=O)Nc1ccc(F)c(C(=O)c2c[nH]c3ncc(Cl)cc23)c1F + Nc1ncn([C@H]2C[C@H](O)[C@@H](CO)O2)c(=O)n1 [decitabine] (first compound 0.08 µM, partner dose 0.1 µM)",224

# No new results follow: entries from further up.
row,SMILES,cleaved PARP positive nuclei fraction [%]
5,"Cc1cc(Nc2cc(N3CCN(C)CC3)nc(/C=C/c3ccccc3)n2)n[nH]1 + CO[C@H]1C[C@@H]2CC[C@@H](C)[C@@](O)(O2)C(=O)C(=O)N2CCCC[C@H]2C(=O)O[C@H]([C@H](C)C[C@@H]2CC[C@@H](OCCO)[C@H](OC)C2)CC(=O)[C@H](C)/C=C(\C)[C@@H](O)[C@@H](OC)C(=O)[C@H](C)C[C@H](C)/C=C/C=C/C=C/1C [everolimus] (first compound 0.04 µM, partner dose 0.02 µM)",1040
6,"CCCS(=O)(=O)Nc1ccc(F)c(C(=O)c2c[nH]c3ncc(Cl)cc23)c1F + Nc1ncn([C@H]2C[C@H](O)[C@@H](CO)O2)c(=O)n1 [decitabine] (first compound 0.08 µM, partner dose 0.1 µM)",224

# Test system: C32
# Experiment: as above
# Settings: library dose: low library concentration; 72 h
row,SMILES,cleaved PARP positive nuclei fraction [%]
1,"Cn1c(=O)n(-c2ccc(C(C)(C)C#N)cc2)c2c3cc(-c4cnc5ccccc5c4)ccc3ncc21 + CN1CCN(c2ccc3nc(-c4c(N)c5c(F)cccc5[nH]c4=O)[nH]c3c2)CC1 [Dovitinib] (first compound 0.004 µM, partner dose 0.1 µM)",74.5
2,"O=C(O)c1ccc2c(c1)nc(Nc1cccc(Cl)c1)c1ccncc12 + COc1ccc(Cl)c(Nc2nc3ccccc3nc2NS(=O)(=O)c2cccc(NC(=O)C(C)(C)N)c2)c1 [XL147] (first compound 0.4 µM, partner dose 0.8 µM)",272
3,"CNC(=O)c1cc(Oc2ccc(NC(=O)Nc3ccc(Cl)c(C(F)(F)F)c3)cc2)ccn1 [sorafenib] + OCc1c[nH]c2ccccc12 [Indole-3-carbinol] (first compound 0.4 µM, partner dose 0.8 µM)",156
4,"CO[C@H]1C[C@@H]2CC[C@@H](C)[C@@](O)(O2)C(=O)C(=O)N2CCCC[C@H]2C(=O)O[C@H]([C@H](C)C[C@@H]2CC[C@@H](OCCO)[C@H](OC)C2)CC(=O)[C@H](C)/C=C(\C)[C@@H](O)[C@@H](OC)C(=O)[C@H](C)C[C@H](C)/C=C/C=C/C=C/1C [everolimus] + O=C(O)c1ccc2c(c1)nc(Nc1cccc(Cl)c1)c1ccncc12 [CX4945] (first compound 0.02 µM, partner dose 0.4 µM)",90.8
5,"Cn1c(=O)n(-c2ccc(C(C)(C)C#N)cc2)c2c3cc(-c4cnc5ccccc5c4)ccc3ncc21 + O=C(O)c1ccc2c(c1)nc(Nc1cccc(Cl)c1)c1ccncc12 [CX4945] (first compound 0.004 µM, partner dose 0.4 µM)",169
6,"CNC(=O)c1cc(Oc2ccc(NC(=O)Nc3ccc(Cl)c(C(F)(F)F)c3)cc2)ccn1 [sorafenib] + Cn1c(Nc2ccc(C(F)(F)F)cc2)nc2cc(Oc3ccnc(-c4ncc(C(F)(F)F)[nH]4)c3)ccc21 [CHIR265] (first compound 0.4 µM, partner dose 0.08 µM)",96.4
7,"Cc1cc(Nc2cc(N3CCN(C)CC3)nc(/C=C/c3ccccc3)n2)n[nH]1 + NC1(c2ccc(-c3nc4ccn5c(=O)[nH]nc5c4cc3-c3ccccc3)cc2)CCC1 [MK2206] (first compound 0.04 µM, partner dose 0.4 µM)",137
8,"CC(C)C[C@H](NC(=O)[C@H](Cc1ccccc1)NC(=O)c1cnccn1)B(O)O [Bortezomib] + CS(=O)(=O)CCNCc1ccc(-c2ccc3ncnc(Nc4ccc(OCc5cccc(F)c5)c(Cl)c4)c3c2)o1 [lapatinib] (first compound 0.001 µM, partner dose 0.8 µM)",77.1
9,"CO[C@H]1C[C@@H]2CC[C@@H](C)[C@@](O)(O2)C(=O)C(=O)N2CCCC[C@H]2C(=O)O[C@H]([C@H](C)C[C@@H]2CC[C@@H](OCCO)[C@H](OC)C2)CC(=O)[C@H](C)/C=C(\C)[C@@H](O)[C@@H](OC)C(=O)[C@H](C)C[C@H](C)/C=C/C=C/C=C/1C [everolimus] + Cn1nnc2c(C(N)=O)ncn2c1=O [temozolomide] (first compound 0.02 µM, partner dose 2 µM)",252
10,"O=C(O)[C@@H]1[O][Sb](=[O])([O][Sb]2(=[O])[O][C@H]([C@H](O)CO)[C@H](O)[C@H](C(=O)O)[O]2)[O][C@H]([C@H](O)CO)[C@@H]1O (stereo partly drawn) [stibogluconate] + C#Cc1cccc(Nc2ncnc3cc(OCCOC)c(OCCOC)cc23)c1 [erlotinib] (first compound 2 µM, partner dose 0.8 µM)",65
11,"C=C(c1ccc(C(=O)O)cc1)c1cc2c(cc1C)C(C)(C)CCC2(C)C [Bexarotene] + Nc1nc(F)nc2c1ncn2[C@@H]1O[C@H](CO)[C@@H](O)[C@@H]1O [fludarabine] (first compound 2 µM, partner dose 0.2 µM)",76.1
12,"CNC(=O)c1cc(Oc2ccc(NC(=O)Nc3ccc(Cl)c(C(F)(F)F)c3)cc2)ccn1 [sorafenib] + C=CCNC1=C2C[C@@H](C)C[C@H](OC)[C@H](O)[C@@H](C)/C=C(\C)[C@H](OC(N)=O)[C@@H](OC)/C=C\C=C(/C)C(=O)NC(=CC1=O)C2=O [Tanespimycin] (first compound 0.4 µM, partner dose 0.002 µM)",167
13,"Cn1c(=O)n(-c2ccc(C(C)(C)C#N)cc2)c2c3cc(-c4cnc5ccccc5c4)ccc3ncc21 + Nc1ncn([C@H]2C[C@H](O)[C@@H](CO)O2)c(=O)n1 [decitabine] (first compound 0.004 µM, partner dose 0.1 µM)",75.9
14,"CC(C)C[C@H](NC(=O)[C@H](Cc1ccccc1)NC(=O)c1cnccn1)B(O)O [Bortezomib] + C=C(c1ccc(C(=O)O)cc1)c1cc2c(cc1C)C(C)(C)CCC2(C)C [Bexarotene] (first compound 0.001 µM, partner dose 2 µM)",181
15,"CCCS(=O)(=O)Nc1ccc(F)c(C(=O)c2c[nH]c3ncc(Cl)cc23)c1F + COCC[n+]1c2c(n(Cc3cnccn3)c1C)C(=O)c1ccccc1C2=O [YM155] (first compound 0.08 µM, partner dose 0.0004 µM)",102
16,"CN1CCN(c2ccc3nc(-c4c(N)c5c(F)cccc5[nH]c4=O)[nH]c3c2)CC1 [Dovitinib] + Cn1c(Nc2ccc(C(F)(F)F)cc2)nc2cc(Oc3ccnc(-c4ncc(C(F)(F)F)[nH]4)c3)ccc21 [CHIR265] (first compound 0.1 µM, partner dose 0.08 µM)",108
17,"Cn1c(=O)n(-c2ccc(C(C)(C)C#N)cc2)c2c3cc(-c4cnc5ccccc5c4)ccc3ncc21 + Cn1nnc2c(C(N)=O)ncn2c1=O [temozolomide] (first compound 0.004 µM, partner dose 2 µM)",92.5
18,"CC(C)C[C@H](NC(=O)[C@H](Cc1ccccc1)NC(=O)c1cnccn1)B(O)O [Bortezomib] + C[C@@H](Oc1cc(-c2cnn(C3CCNCC3)c2)cnc1N)c1c(Cl)ccc(F)c1Cl [Crizotinib] (first compound 0.001 µM, partner dose 0.2 µM)",92.7
19,"O=C(O)[C@@H]1[O][Sb](=[O])([O][Sb]2(=[O])[O][C@H]([C@H](O)CO)[C@H](O)[C@H](C(=O)O)[O]2)[O][C@H]([C@H](O)CO)[C@@H]1O (stereo partly drawn) [stibogluconate] + OCc1c[nH]c2ccccc12 [Indole-3-carbinol] (first compound 2 µM, partner dose 0.8 µM)",77.6
20,"C=C(c1ccc(C(=O)O)cc1)c1cc2c(cc1C)C(C)(C)CCC2(C)C [Bexarotene] + Cn1nnc2c(C(N)=O)ncn2c1=O [temozolomide] (first compound 2 µM, partner dose 2 µM)",74.1
21,"Nc1ncn([C@H]2C[C@H](O)[C@@H](CO)O2)c(=O)n1 [decitabine] + C[C@]1(c2nc3c(C(N)=O)cccc3[nH]2)CCCN1 [Veliparib] (first compound 0.1 µM, partner dose 1.4 µM)",146
22,"CN1CCN(c2ccc3nc(-c4c(N)c5c(F)cccc5[nH]c4=O)[nH]c3c2)CC1 [Dovitinib] + Nc1nc(F)nc2c1ncn2[C@@H]1O[C@H](CO)[C@@H](O)[C@@H]1O [fludarabine] (first compound 0.1 µM, partner dose 0.2 µM)",67.4
